Results are given in words; binding and its absence hold for the method and conditions named. Some entries that bind do so weakly or less than the wild type. Where a sequence is shown, tags or fusion partners need not be part of it.
Experiments:
[1] = target: T1, human MICB, 6XHis tagged (human) (UniProt Q29980); assay: BLI binding kinetics (legend of FIG. 8)
T1 sequence (looked up): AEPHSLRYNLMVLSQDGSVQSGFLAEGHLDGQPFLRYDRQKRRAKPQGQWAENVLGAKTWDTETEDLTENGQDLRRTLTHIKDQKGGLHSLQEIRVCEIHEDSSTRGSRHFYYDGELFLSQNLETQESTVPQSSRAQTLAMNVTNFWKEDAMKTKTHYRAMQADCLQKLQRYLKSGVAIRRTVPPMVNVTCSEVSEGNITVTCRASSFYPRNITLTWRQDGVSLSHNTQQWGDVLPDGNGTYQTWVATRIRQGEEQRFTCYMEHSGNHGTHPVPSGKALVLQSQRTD

[2] = target: T2, human MICA, 6XHis tagged (human) (UniProt Q29983); assay: BLI binding kinetics (legend of FIG. 8)
T2 sequence (looked up): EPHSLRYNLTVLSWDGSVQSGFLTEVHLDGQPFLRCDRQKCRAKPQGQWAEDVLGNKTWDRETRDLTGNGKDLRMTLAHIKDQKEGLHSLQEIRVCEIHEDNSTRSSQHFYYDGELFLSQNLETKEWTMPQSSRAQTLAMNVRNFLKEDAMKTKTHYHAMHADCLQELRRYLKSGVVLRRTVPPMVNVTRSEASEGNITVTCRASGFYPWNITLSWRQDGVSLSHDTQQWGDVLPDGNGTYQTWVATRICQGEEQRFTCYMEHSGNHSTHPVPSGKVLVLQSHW

[3] = target: T1, human MICB, 6XHis tagged (human); assay: BLI (Gator Bio), antibody on anti-Fc biosensors, 200 nM 6XHis tagged antigen, monovalent format
[4] = target: T2, human MICA, 6XHis tagged (human); assay: as above

binding [1]: binds
binding [2]: binds
binding [3]: binds
binding [4]: binds
B1: ATX-P-1826 (fully humanized anti-MICA antibody) (antibody, human IgG1, kappa, V domains shown)
VH: QVQLVQSGAEVRKPGASVKVSCKASGYTFTGNYIHWVRQAPGQGLEWMGWINPNSGATNSAQKFQGRVTTTRDTSIDTAYMELSRLRSDDTAVYYCARDTFKPYYYYYLDVWGKGTTVTVSS
VL: DIQMTQSPSSVSASVGDRVTITCRTSQAINSWLAWYQQKPGKPPKLLISAASSLQSGVPSRFSGSGSGTDFTLTISNLQPEDFATYYCQQANIFPLTFGGGTKVEIKR

— patent EP4727976A2
